This test concerns the target GST-14-3-3. The experiment in a line: affinity purification with mass spectrometry; KIOSS: glutathione Sepharose 4B beads coated with GST-14-3-3 (500 pmol), incubated with RIPA lysates of mouse striatal/accumbal slices for 60 min at 4 °C; slices treated with PEP-005 or carbachol, with or without GF109203X; bound proteins digested, phosphopeptides enriched on TiO2, LC-MS/MS; only the target purified.

No constants are given. Whether binding was seen depends on the method and setting. In cells and extracts the contact can be indirect. A yes stands for co-enrichment or nearness to the bait. Other partners may have been found.

B1: Git1 (protein, UniProt Q68FF6 1-770)
chain: MSRKGPRAEVCADCSAPDPGWASISRGVLVCDECCSVHRSLGRHISIVKHLRHSAWPPTLLQMVHTLASNGANSIWEHSLLDPAQVQSGRRKANPQDKVHPIKSEFIRAKYQMLAFVHKLPCRDDDGVTAKDLSKQLHSSVRTGNLETCLRLLSLGAQANFFHPEKGTTPLHVAAKAGQTLQAELLVVYGADPGSPDVNGRTPIDYARQAGHHELAERLVECQYELTDRLAFYLCGRKPDHKNGHYIIPQMADRSRQKCMSQSLDLSELAKAAKKKLQALSNRLFEELAMDVYDEVDRRENDAVWLATQNHSTLVTERSAVPFLPVNPEYSATRNQGRQKLARFNAREFATLIIDILSEAKRRQQGKSLSSPTDNLELSARSQSELDDQHDYDSVASDEDTDQEPLPSAGATRNNRARSMDSSDLSDGAVTLQEYLELKKALATSEAKVQQLMKVNSSLSDELRRLQREIHKLQAENLQLRQPPGPVPPPSLPSERAEHTLMGPGGSTHRRDRQAFSMYEPGSALKPFGGTPGDELATRLQPFHSTELEDDAIYSVHVPAGLYRIRKGVSASSVPFTPSSPLLSCSQEGSRHASKLSRHGSGADSDYENTQSGDPLLGLEGKRFLELSKEDELHPELESLDGDLDPGLPSTEDVILKTEQVTKNIQELLRAAQEFKHDSFVPCSEKIHLAVTEMASLFPKRPALEPVRSSLRLLNASAYRLQSECRKTVPPEPGAPVDFQLLTQQVIQCAYDIAKAAKQLVTITTREKKQ
modifications: phosphorylated; sites not given
In the case of B1, the binding result is “binds”.

B2: Bcr (protein, UniProt Q6PAJ1 1-1270)
chain: MVDSVGFAEAWRAQFPDSEPPRMELRSVGDIEQELERCKASIRRLEQEVNQERFRMIYLQTLLAKEKKSYDRQRWGFRRAAQPPDGAAEPRASAPRPPPAPADGADPAPVEESEARPDGEGSPSKGRSASARRPAAAASADRDDRGPPTSVAALRSNFEKIRKGPAQPGSADAEKPFYVNVEFHHERGLVKVNDKEVSDRISSLGSQAMQMERKKSQQSAGQGLGEAPRPHYRGRSSESSCGLDGDYEDAELNPRFLKDNLINANGGNRPPWPPLEYQPYQSIYVGGMMVEGEGKSPLLRSQSTSEQEKRLTWPRRSYSPRSFEDSGGGYTPDCSSNENLTSSEEDFSSGQSSRVSPSPTTYRMFRDKSRSPSQNSQQSFDSSSPPTPQCQKRHRQCQVVVSEATIVGVRKTGQIWPSDGDSTFQGEADSSFGTPPGYGCAADQAEEQRRHQDGLPYIDDSPSSSPHLSSKGRGSLASGALDPTKVSELDLEKGLEMRKWVLSGILASEETYLSHLEALLLPMKPLKAAATTSQPVLTSQQIETIFFKVPELYEIHKEFYDGLFPRVQQWSHQQRVGDLFQKLASQLGVYRAFVDNYGVAMETAEKCCQANAQFAEISENLRARSNKDVKDSTTKNSLETLLYKPVDRVTRSTLVLHDLLKHTPSSHPDHSLLQDALRISQNFLSSINEEITPRRQSMTVKKGEHRQLLKDSFMVELVEGARKLRHIFLFTDLLLCTKLKKQSGGKTQQYDCKWYIPLTDLSFQMVDELEALPNIPLVPDEELDALKIKISQIKSDIQREKRANKGSKVMERLRKKLSEQESLLLLMSPSMAFRVHSRNGKSYTFLISSDYERAEWRESIREQQKKCFKSFSLTSVELQMLTNSCVKLQTVHHIPLTINKEDDESPGLYGFLHVIVHSATGFKQSSNLYCTLEVDSFGYFVNKAKTRVYRDTTEPNWNEEFEIELEGSQTLRILCYEKCYNKMKMTKEDGESADKLMGKGQVQLDPQTLQDRDWQRTVIDMNGIEVKLSVKFTSREFSLKRMPSRKQTGVFGVKIAVVTKRERSKVPYIVRQCVEEIERRGMEEVGIYRVSGVATDIQALKAAFDVNNKDVSVMMSEMDVNAIAGTLKLYFRELPEPLFTDEFYPNFAEGIALSDPVAKESCMLNLLLSLPEANLLTFLFLLDHLKRVAEKETVNKMSLHNLATVFGPTLLRPSEKESKLPANPSQPITMTDSWSLEVMSQVQVLLYFLQLEAIPAPDSKRQSILFSTEV
modifications: phosphorylated; sites not given
As for B2, the binding entry is “binds”.

(Values after article PMC9708603.)
